Test results as given in US6365126B1, “Learning and short term memory defects with Neurofibromatosis 1 (NF1) expression” (Cold Spring Harbor Laboratory, priority 1997, dated 2002).
For at least one compound, name, drawing or mass did not settle the structure.

Test system: K^+ currents of body-wall muscle fibers
Test: Two-microelectrode voltage-clamp recording of PACAP38-induced responses, larval body-wall neuromuscular preparation
Set-up: species or system Drosophila
Method: PACAP38-induced responses were recorded by the two-microelectrode voltage-clamp method from body-wall muscle fibers of larvae at the third instar (Zhong, Y., Nature, 375:588-592 (1995); Arimura, A. Regulatory Peptides, 37:287-303 (1992); Spengler, D. et al., Nature, 365:170-175 (1993); Jan, L. Y. et al., J. Physiol., 262:189-214 (1976); Wu, C.-F. et al., Science, 220:1076-1078 (1983); Stewart, B. A. et al., J. Comp. Physiol., 175:179-191 (1994)). Electrophysiological recording: The larval body-wall neuromuscular preparation has been described (Zhong, Y. et al., Neuron, 14:527-536 (1995); Zhong, Y., Nature, 375:588-592 (1995); Jan, L. Y. et al., J. Physiol., 262:189-214 (1976); Wu, C.-F. et al., Science, 220:1076-1078 (1983); Stewart, B. A. et al., J Comp Physiol., 175:179-191 (1994)). The setup, saline, recording conditions and voltage paradigms were as described (Zhong, Y. et al., Neuron, 14:527-536 (1995); Zhong, Y., Nature, 375:588-592 (1995)). For recording the PACAP38-induced synaptic current, the membrane potential was clamped at −80 mV. For recording K^+ currents, command voltages were stepped from the holding potential of −80 to −50 and +20 mV, respectively. […] PACAP38 was applied by pressure ejection through a glass electrode positioned near the voltage-clamped muscle membrane. Forskolin and cAMP analogs were applied to the solution bathing the preparation.

C=C[C@@]1(C)CC(=O)[C@]2(O)[C@@]3(C)[C@@H](O)CCC(C)(C)[C@@H]3[C@H](O)[C@H](OC(C)=O)[C@@]2(C)O1 [forskolin]
PACAP38 response in mutants exposed to forskolin (NF1^P2 and NF1^P1/NF1^P2 mutants): normal response
PACAP38 response in mutants exposed to forskolin (rut^1 mutants): restored the PACAP38 response
